For one substance, binding results are on record in article PMC4982137, “Mycobacterium tuberculosis H37Ra: a surrogate for the expression of conserved, multimeric proteins of M.tb H37Rv” (Microbial Cell Factories, 2016).

By UniProt entry, the sequences of proteins in these tests, tags left out.
UniProt P9WN83: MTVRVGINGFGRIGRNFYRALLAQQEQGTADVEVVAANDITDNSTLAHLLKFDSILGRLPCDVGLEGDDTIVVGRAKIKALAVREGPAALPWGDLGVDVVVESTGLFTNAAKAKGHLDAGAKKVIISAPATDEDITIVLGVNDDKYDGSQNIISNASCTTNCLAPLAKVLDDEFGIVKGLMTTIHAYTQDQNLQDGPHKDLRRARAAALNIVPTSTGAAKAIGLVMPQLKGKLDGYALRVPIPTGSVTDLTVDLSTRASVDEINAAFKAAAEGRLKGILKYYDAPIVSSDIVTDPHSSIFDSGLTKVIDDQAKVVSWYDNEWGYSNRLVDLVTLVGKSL
UniProt A0QWW2: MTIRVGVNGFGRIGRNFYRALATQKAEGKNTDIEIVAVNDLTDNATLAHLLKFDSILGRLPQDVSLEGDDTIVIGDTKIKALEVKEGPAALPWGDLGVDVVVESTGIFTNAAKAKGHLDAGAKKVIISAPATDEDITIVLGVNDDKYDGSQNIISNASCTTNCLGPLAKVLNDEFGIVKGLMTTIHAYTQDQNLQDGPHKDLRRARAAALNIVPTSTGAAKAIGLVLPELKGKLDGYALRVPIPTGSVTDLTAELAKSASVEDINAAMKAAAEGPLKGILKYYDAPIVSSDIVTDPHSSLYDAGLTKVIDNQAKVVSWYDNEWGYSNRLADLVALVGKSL

Results are given in words; binding and its absence hold for the method and conditions named. Binding seen in cells or lysates may run through a third protein. A yes stands for co-enrichment or nearness to the bait. Other partners may have been found.

This assay concerns the target MS-GAPDH-H: recombinant M.tb H37Rv GAPDH with a C-terminal 8XHis tag, expressed in M. smegmatis (the (Mycobacterium tuberculosis H37Rv) (UniProt P9WN83)). Nature of the assay: affinity purification with mass spectrometry.

Turning to “native M. smegmatis GAPDH (from UniProt A0QWW2 1-340) (enzyme)”, the binding result is reported as “binds”.
